Results deposited as PubChem BioAssay AID493246 (Drosophila RNAi Screening Center, 2011)

Screen: 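Identify essential fly genes by loss of cell viability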 (primary screen)
System: Drosophila Kc and S2R+ cells
Reagents: long dsRNA against Drosophila genes
Measured: 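Cell number per well after knock-down, printed as raw plate values; calls were based on per-plate z-scores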
Reading the numbers: Kc cell number and S2R+ cell number: higher = more cells remaining
Active means: 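Active when the per-plate z-score of cell number is 3 or more in the direction of fewer cells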
The screen tested about 21,000 reagents; below is an unselected part of those with a known target gene and a result. In the full data, 429 (2%) were called active. 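Values are raw and not normalised between plates; calls rest on per-plate z-scores that were not deposited.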 Unmarked entries are inactive. No sequences are given here. Not stated in the record: the amount of reagent, the time to read-out.

{"gene knocked down": "Sec20 (Secretory 20)", "dsRNA": "DRSC12295", "Kc cell number, rep 1": 1.64e6, "Kc cell number, rep 2": 1.82e6, "S2R+ cell number, rep 1": 1.33e6, "S2R+ cell number, rep 2": 1.49e6}
{"gene knocked down": "CG14455", "dsRNA": "DRSC11712", "Kc cell number, rep 1": 1.52e6, "Kc cell number, rep 2": 1.56e6, "S2R+ cell number, rep 1": 1.20e6, "S2R+ cell number, rep 2": 1.35e6}
{"gene knocked down": "Atg14 (Autophagy-related 14)", "dsRNA": "DRSC14421", "Kc cell number, rep 1": 5.24e5, "S2R+ cell number, rep 1": 6.39e5}
{"gene knocked down": "CG42699", "dsRNA": "DRSC18076", "Kc cell number, rep 1": 5.42e5, "S2R+ cell number, rep 1": 8.83e5}
{"gene knocked down": "CG42699", "dsRNA": "DRSC18341", "Kc cell number, rep 1": 1.56e6, "Kc cell number, rep 2": 1.49e6, "S2R+ cell number, rep 1": 1.08e6, "S2R+ cell number, rep 2": 1.17e6}
{"gene knocked down": "hts (hu li tai shao)", "dsRNA": "DRSC07629", "Kc cell number, rep 1": 1.44e6, "Kc cell number, rep 2": 1.53e6, "S2R+ cell number, rep 1": 1.15e6, "S2R+ cell number, rep 2": 1.21e6}
{"gene knocked down": "CG2875", "dsRNA": "DRSC18231", "Kc cell number, rep 1": 5.37e5, "S2R+ cell number, rep 1": 8.35e5}
{"gene knocked down": "CG14676", "dsRNA": "DRSC12262", "Kc cell number, rep 1": 1.50e6, "Kc cell number, rep 2": 1.76e6, "S2R+ cell number, rep 1": 1.23e6, "S2R+ cell number, rep 2": 1.35e6}
{"gene knocked down": "ninaD (neither inactivation nor afterpotential D)", "dsRNA": "DRSC02886", "Kc cell number, rep 1": 1.64e6, "Kc cell number, rep 2": 1.95e6, "S2R+ cell number, rep 1": 1.23e6, "S2R+ cell number, rep 2": 1.39e6}
{"gene knocked down": "CG15539", "dsRNA": "DRSC15075", "Kc cell number, rep 1": 1.53e6, "Kc cell number, rep 2": 1.54e6, "S2R+ cell number, rep 1": 1.01e6, "S2R+ cell number, rep 2": 1.08e6}
{"gene knocked down": "PTP-ER (Protein tyrosine phosphatase-ERK/Enhancer of Ras1)", "dsRNA": "DRSC04636", "Kc cell number, rep 1": 1.23e6, "Kc cell number, rep 2": 1.38e6, "S2R+ cell number, rep 1": 1.04e6, "S2R+ cell number, rep 2": 1.11e6}
{"gene knocked down": "Osbp (Oxysterol binding protein)", "dsRNA": "DRSC16779", "Kc cell number, rep 1": 1.65e6, "Kc cell number, rep 2": 1.64e6, "S2R+ cell number, rep 1": 1.30e6, "S2R+ cell number, rep 2": 1.34e6}
{"gene knocked down": "CG33013 (retired record)", "dsRNA": "DRSC06286", "Kc cell number, rep 1": 1.44e6, "Kc cell number, rep 2": 1.52e6, "S2R+ cell number, rep 1": 1.28e6, "S2R+ cell number, rep 2": 1.35e6}
{"gene knocked down": "Drep1 (DNA fragmentation factor-related protein 1)", "dsRNA": "DRSC07527", "Kc cell number, rep 1": 1.59e6, "Kc cell number, rep 2": 1.66e6, "S2R+ cell number, rep 1": 1.43e6, "S2R+ cell number, rep 2": 1.55e6}
{"gene knocked down": "Ask1 (Apoptotic signal-regulating kinase 1)", "dsRNA": "DRSC16789", "Kc cell number, rep 1": 1.22e6, "Kc cell number, rep 2": 1.39e6, "S2R+ cell number, rep 1": 1.10e6, "S2R+ cell number, rep 2": 1.21e6}
{"gene knocked down": "Actbeta (Activin-beta)", "dsRNA": "DRSC17185", "Kc cell number, rep 1": 1.12e6, "Kc cell number, rep 2": 1.24e6, "S2R+ cell number, rep 1": 1.05e6, "S2R+ cell number, rep 2": 1.06e6}
{"gene knocked down": "Actbeta (Activin-beta)", "dsRNA": "DRSC17217", "Kc cell number, rep 1": 1.53e6, "Kc cell number, rep 2": 1.53e6, "S2R+ cell number, rep 1": 1.12e6, "S2R+ cell number, rep 2": 1.22e6}
{"gene knocked down": "mus302 (mutagen-sensitive 302)", "dsRNA": "DRSC09905", "Kc cell number, rep 1": 1.31e6, "Kc cell number, rep 2": 1.47e6, "S2R+ cell number, rep 1": 1.24e6, "S2R+ cell number, rep 2": 1.36e6}
{"gene knocked down": "Dhc93AB (Dynein heavy chain at 93AB)", "dsRNA": "DRSC16644", "Kc cell number, rep 1": 1.16e6, "Kc cell number, rep 2": 1.27e6, "S2R+ cell number, rep 1": 1.10e6, "S2R+ cell number, rep 2": 1.14e6}
{"gene knocked down": "CG4793", "dsRNA": "DRSC01966", "Kc cell number, rep 1": 1.47e6, "Kc cell number, rep 2": 1.56e6, "S2R+ cell number, rep 1": 1.22e6, "S2R+ cell number, rep 2": 1.44e6}
{"gene knocked down": "Amt (Ammonium transporter)", "dsRNA": "DRSC16055", "Kc cell number, rep 1": 1.23e6, "Kc cell number, rep 2": 1.32e6, "S2R+ cell number, rep 1": 1.25e6, "S2R+ cell number, rep 2": 1.34e6}

3 successive reagents already listed, quoted:
{"gene knocked down": "CG2875", "dsRNA": "DRSC18231", "Kc cell number, rep 1": 5.37e5, "S2R+ cell number, rep 1": 8.35e5}
{"gene knocked down": "CG14676", "dsRNA": "DRSC12262", "Kc cell number, rep 1": 1.50e6, "Kc cell number, rep 2": 1.76e6, "S2R+ cell number, rep 1": 1.23e6, "S2R+ cell number, rep 2": 1.35e6}
{"gene knocked down": "ninaD (neither inactivation nor afterpotential D)", "dsRNA": "DRSC02886", "Kc cell number, rep 1": 1.64e6, "Kc cell number, rep 2": 1.95e6, "S2R+ cell number, rep 1": 1.23e6, "S2R+ cell number, rep 2": 1.39e6}
